These are yes or no findings as the source states them, for the method shown. For some of these results: In cells and extracts the contact can be indirect. Some entries that bind do so weakly or less than the wild type.
T1: RIOK1(kd)-StHA (human) (UniProt Q9BRS2)
T1 sequence: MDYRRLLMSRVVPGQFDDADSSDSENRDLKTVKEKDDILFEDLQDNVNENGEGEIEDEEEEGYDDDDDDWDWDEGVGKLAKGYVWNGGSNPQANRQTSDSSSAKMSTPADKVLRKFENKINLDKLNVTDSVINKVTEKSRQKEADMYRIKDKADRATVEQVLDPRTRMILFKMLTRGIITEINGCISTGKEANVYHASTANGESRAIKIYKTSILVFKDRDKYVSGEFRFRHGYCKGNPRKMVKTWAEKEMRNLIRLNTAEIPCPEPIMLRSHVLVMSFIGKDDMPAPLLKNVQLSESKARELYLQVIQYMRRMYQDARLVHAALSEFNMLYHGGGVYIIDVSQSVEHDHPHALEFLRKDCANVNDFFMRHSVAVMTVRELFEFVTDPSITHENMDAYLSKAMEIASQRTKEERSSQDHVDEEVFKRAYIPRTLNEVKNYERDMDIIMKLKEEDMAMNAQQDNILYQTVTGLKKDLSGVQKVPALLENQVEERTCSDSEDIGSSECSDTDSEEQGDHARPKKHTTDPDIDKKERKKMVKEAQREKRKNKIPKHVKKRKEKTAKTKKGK

Amino acid sequences for entries named in this document (tags omitted). A change or cut given only in a name is not applied to a line headed by its entry.
UniProt Q9Y5T5: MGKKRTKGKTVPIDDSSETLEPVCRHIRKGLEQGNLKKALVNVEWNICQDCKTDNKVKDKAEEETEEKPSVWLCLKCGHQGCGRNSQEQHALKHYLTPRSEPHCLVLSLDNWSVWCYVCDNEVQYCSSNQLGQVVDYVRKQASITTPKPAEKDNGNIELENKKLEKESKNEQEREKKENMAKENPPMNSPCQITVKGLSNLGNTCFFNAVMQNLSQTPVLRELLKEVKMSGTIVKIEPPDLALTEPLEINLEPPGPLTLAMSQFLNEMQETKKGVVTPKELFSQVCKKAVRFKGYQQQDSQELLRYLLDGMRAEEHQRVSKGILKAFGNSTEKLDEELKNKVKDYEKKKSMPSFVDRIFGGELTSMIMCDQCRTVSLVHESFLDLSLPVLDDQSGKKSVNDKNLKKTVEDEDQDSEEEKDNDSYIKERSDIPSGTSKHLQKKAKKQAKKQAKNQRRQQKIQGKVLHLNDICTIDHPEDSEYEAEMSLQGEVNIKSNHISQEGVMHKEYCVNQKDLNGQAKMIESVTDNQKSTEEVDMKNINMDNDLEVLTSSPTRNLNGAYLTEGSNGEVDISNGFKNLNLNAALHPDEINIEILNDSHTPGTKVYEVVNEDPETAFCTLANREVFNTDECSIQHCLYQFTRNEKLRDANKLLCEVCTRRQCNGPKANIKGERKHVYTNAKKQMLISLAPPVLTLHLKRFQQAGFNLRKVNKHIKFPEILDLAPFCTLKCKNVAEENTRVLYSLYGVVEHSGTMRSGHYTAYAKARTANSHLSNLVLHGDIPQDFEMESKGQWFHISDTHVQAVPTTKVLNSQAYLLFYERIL

T2: ENP1-StHA (human), Q13895
T2 chain: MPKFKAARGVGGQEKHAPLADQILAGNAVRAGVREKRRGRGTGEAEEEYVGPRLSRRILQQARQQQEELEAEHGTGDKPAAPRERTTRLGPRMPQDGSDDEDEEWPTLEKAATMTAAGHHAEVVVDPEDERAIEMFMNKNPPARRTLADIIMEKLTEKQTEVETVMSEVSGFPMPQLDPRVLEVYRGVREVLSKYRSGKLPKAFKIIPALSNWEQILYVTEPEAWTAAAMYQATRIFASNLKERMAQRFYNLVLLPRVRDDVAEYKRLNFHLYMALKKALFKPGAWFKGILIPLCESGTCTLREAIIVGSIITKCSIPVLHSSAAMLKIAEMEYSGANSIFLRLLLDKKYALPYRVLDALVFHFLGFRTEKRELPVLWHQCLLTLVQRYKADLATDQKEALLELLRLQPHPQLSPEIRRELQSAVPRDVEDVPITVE


Assays:
RIOK1(kd)-StHA (human) = biological target: T1, RIOK1(kd)-StHA (human); assay: pull-down; StrepTactin beads with lysates of tetracycline-induced HEK293 FlpIn T-REx cells expressing the tagged bait; 10 mM Tris pH 7.5, 100 mM KCl, 2 mM MgCl2, 0.5% NP-40, 1 mM DTT; 30 min at 4°C; eluates immunoblotted; in Figure 4E cells treated with control or USP16 siRNA for 72 hr
USP16(WT)-StHA (human) = USP16(WT)-StHA (human) (UniProt Q9Y5T5); assay: tandem affinity purification (TAP); StrepTactin beads, elution with 2.5 mM d-desthiobiotin, then HA-agarose 1 hr at 4°C, from lysates of HEK293 cells expressing the StHA-tagged bait; eluates analysed by silver staining and immunoblotting
[1] = biological target: USP16(C205S)-StHA (human) (UniProt Q9Y5T5); assay: as above
[2] = biological target: T2, ENP1-StHA (human), Q13895; assay: pull-down; StrepTactin beads with lysates of tetracycline-induced HEK293 FlpIn T-REx cells expressing the tagged bait; 10 mM Tris pH 7.5, 100 mM KCl, 2 mM MgCl2, 0.5% NP-40, 1 mM DTT; 30 min at 4°C; eluates immunoblotted; in Figure 4E cells treated with control or USP16 siRNA for 72 hr; conditions: remark: other sources report otherwise

binding (RIOK1(kd)-StHA (human)) | binding (USP16(WT)-StHA (human)) | binding [1] | binding [2] | Binder
binds | binds | binds |  | NOB1 (enzyme, UniProt Q9ULX3 1-412) MAPVEHVVADAGAFLRHAALQDIGKNIYTIREVVTEIRDKATRRRLAVLPYELRFKEPLPEYVRLVTEFSKKTGDYPSLSATDIQVLALTYQLEAEFVGVSHLKQEPQKVKVSSSIQHPETPLHISGFHLPYKPKPPQETEKGHSACEPENLEFSSFMFWRNPLPNIDHELQELLIDRGEDVPSEEEEEEENGFEDRKDDSDDDGGGWITPSNIKQIQQELEQCDVPEDVRVGCLTTDFAMQNVLLQMGLHVLAVNGMLIREARSYILRCHGCFKTTSDMSRVFCSHCGNKTLKKVSVTVSDDGTLHMHFSRNPKVLNPRGLRYSLPTPKGGKYAINPHLTEDQRFPQLRLSQKARQKTNVFAPDYIAGVSPFVENDISSRSATLQVRDSTLGAGRRRLNPNASRKKFVKKR
 |  |  | binds | NOB1, Q9ULX3 1-412 (enzyme) MAPVEHVVADAGAFLRHAALQDIGKNIYTIREVVTEIRDKATRRRLAVLPYELRFKEPLPEYVRLVTEFSKKTGDYPSLSATDIQVLALTYQLEAEFVGVSHLKQEPQKVKVSSSIQHPETPLHISGFHLPYKPKPPQETEKGHSACEPENLEFSSFMFWRNPLPNIDHELQELLIDRGEDVPSEEEEEEENGFEDRKDDSDDDGGGWITPSNIKQIQQELEQCDVPEDVRVGCLTTDFAMQNVLLQMGLHVLAVNGMLIREARSYILRCHGCFKTTSDMSRVFCSHCGNKTLKKVSVTVSDDGTLHMHFSRNPKVLNPRGLRYSLPTPKGGKYAINPHLTEDQRFPQLRLSQKARQKTNVFAPDYIAGVSPFVENDISSRSATLQVRDSTLGAGRRRLNPNASRKKFVKKR

From paper PMC7065907
